Measured values from PubChem BioAssay AID2685 (National Center for Advancing Translational Sciences (NCATS), 2010).
The whole screen tested about 320,000 compounds, of which about 2,100 (0.66%) were called active. This list was built around the results that the source calls inconclusive (neither active nor inactive); the mix of calls is not that of the screen. The call rests on the fitted dose curve; in most records, active means well fitted inhibition curve with a large enough effect in the signal ratio, with a control signal flat (not every such curve was filed as active); inconclusive means small, poorly fitted or top-dose-only effect, or effect the other way, or a change in a side signal; inactive means flat fitted curve, though single readings scatter; the % refers to the signal ratio. Where the call is inconclusive, the potency comes from a doubtful curve fit.

Assay: qHTS Assay for Lipid Storage Modulators in Drosophila S3 Cells
Settings: BODIPY lipid droplet fluorescence, 18-24 h, cells fed with added oleic acid; lipid storage change, negative = inhibition: at 46.1 µM (top of the series) unless noted
Procedure, shortened: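 Drosophila S3 cells got compounds at several concentrations plus oleic acid (400 uM solution). Laser-scanning cytometry with 488 nm excitation read lipid droplets at 500-530 nm and cells at 575-640 nm. Percent activity was relative to 20 uM Triacsin C.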
On the % scale 0 is the no-effect control and ±100 the full control effect; potency means the concentration at half of the fitted maximal effect.

SMILES	lipid storage change, negative = inhibition	Potency	outcome
CC(C)Cn1c(SCC(=O)NC2CCCc3ccccc32)nc(O)cc1=O (configuration not stated)	inconclusive: 16%		
O=C(NC1CCCCCC1)C1Cc2ccccc2CN1C(=O)c1ccco1 (configuration not stated)	inconclusive: -12.4%		
CN(CC(=O)NC(=O)NC1CCCCC1)CC(=O)Nc1ccc(Cl)cc1	inconclusive: 1.35%		
CC(=O)Nc1ccc(N(C(=O)c2ccco2)C(C(=O)NC2CCCC2)c2ccc(N3CCOCC3)cc2)cc1 (configuration not stated)	inconclusive: 16.2%		
CCOC(=O)c1c(NC(=O)c2cccs2)sc(C)c1C		inconclusive: 731 nM [activator, partial curve]	
CCCNCc1cc(OCC)c(OCC(=O)Nc2ccccc2)cc1Br	inconclusive: 153%		
Cc1ccsc1C1Nc2ccc3ncccc3c2C2=C1C(=O)CC(C)(C)C2 (configuration not stated)	inconclusive: 34.3%		
O=C(Nc1cccc(C(=O)O)c1)/C(=C\c1ccc2c(c1)OCO2)NC(=O)c1ccccc1Cl	inconclusive: 89.4%		
O=C(O)CCCCCCCCCC(=O)c1cccs1			inactive [at 46.1 µM]
COc1cccc(CN(C)C(=O)C23CC4CC(CC(C4)C2)C3)c1	inconclusive: 14.2%		
CC(C)n1nc(C(=O)N2CCN(S(=O)(=O)c3cccs3)CC2)c2ccccc2c1=O	inconclusive: -6.29%		
Cc1cc(NC(=O)CC(C)C)c(=O)n(Cc2ccccc2F)c1	inconclusive: -15.3%		
CC1CCCN(C(=O)Cn2c3ccccc3c3nc4n(c(=O)c32)CCS4)C1 (configuration not stated)		active: 7310 nM	
COCCCN(C)C1CCN(C(=O)Nc2ccc(F)cc2)CC1		inconclusive: 29100 nM [falling, single point]	
COc1ccc(Cl)cc1N(C)C(=O)CCNC(=O)Cn1cnc2ccccc2c1=O	inconclusive: 0.737%		
Cc1cc(C)n(CC(=O)NNC(=O)COc2ccc(F)cc2Br)n1	inconclusive: -3.63%		
COc1ccc(/C=C(/NC(=O)c2ccco2)C(=O)N2CCOCC2)cc1	inconclusive: 169%		
Cn1c(=O)n(CCCOc2ccc(Br)cc2)c2ccccc21	inconclusive: 24%		
O=C(c1cc2ccccc2oc1=O)N1CCN(S(=O)(=O)c2ccccc2)CC1	inconclusive: 7.94%		
C/C(=N\NC(=O)c1ccc(Cl)c(Cl)c1)c1ccccn1	inconclusive: 37.9%		
COc1ccccc1OCc1ccc(C(=O)n2nc(C)c(Cl)c2C)o1	inconclusive: -14.3% [cytotoxic]		
Cc1ccc2c(c1)N(S(=O)(=O)c1ccc3c(c1)NC(=O)CC(=O)N3)CCO2	inactive: -11.8%		
CN1C(=O)NC(c2ccccc2)C2=C1CN(c1ccc3ccccc3c1)C2=O (configuration not stated)	inconclusive: 22.8%		
O=C(CCC1N=C2c3ccccc3N=C(SCc3ccc(F)cc3)N2C1=O)NCc1ccco1 (configuration not stated)		inconclusive: 580 nM [falling, single point]	
COc1ccc([N+](=O)[O-])cc1NC(=O)Cc1ccc(Cl)cc1		inconclusive: 1460 nM [activator, full curve, poor fit]	
CCCc1cc(CNC(=O)C2CCC(=O)N(Cc3ccccc3OC)C2)on1 (configuration not stated)	inconclusive: -33.4%		

SMILES	lipid storage change, negative = inhibition	Potency	outcome
Fc1ccc2nc3[nH]c4ccccc4c3nc2c1	inconclusive: -34.6%		
CC(C)(C)NC(=O)NC(=O)Cn1cc(C(F)(F)F)ccc1=O	inconclusive: -31.7%		
COCCNC(=O)c1ccc(CSCc2cccc(Cl)c2)o1	inactive: 11.7%		
C/C(NCc1cccnc1)=C(\C#N)C(=O)NCc1ccccc1	inconclusive: 68.9%		
CCN(CC)S(=O)(=O)c1ccc2c(c1)c(=O)c(C(=O)NCc1ccc3c(c1)OCO3)cn2C		inconclusive: 259 nM [activator, full curve]	
COc1ccc(-c2cc3ccc(OCC(N)=O)cc3oc2=O)cc1OC		inconclusive: 92 nM [falling, full curve, poor fit]	
Cc1cccc(N2CCN(C(=O)CCCCCn3c(=S)[nH]c4ccc(N5CCOCC5)cc4c3=O)CC2)c1C		active: 20600 nM	
CCCN1CCN(C(=O)CN2C(=O)CC(C)(C)S(=O)(=O)c3ccccc32)CC1		inconclusive: 23100 nM [falling, single point]	
COc1cc2c(cc1OC)CN(C(=O)c1ccc3nc[nH]c3c1)CC2		inconclusive: 146 nM [falling, full curve, poor fit]	
COC(=O)C1=C(C(=O)OC)[C@@H]2N(C)c3ccc(OC)cc3[C@@]23C[C@@H](C(=O)OC)N(C(=O)c2cccs2)C3=N1		inconclusive: 29100 nM [activator, single point]	
O=C(Nc1ccc2nc3n(c(=O)c2c1)CCCCC3)C(=O)N1CCN(c2ccc(F)cc2)CC1	inconclusive: 225%		
CCOc1ccccc1-n1c(SCC(=O)Nc2nccs2)nnc1-c1ccoc1C		inconclusive: 461 nM [activator, full curve]	
Cc1cccc(N(C)C(=O)COc2cc(=O)n(C)c3ccccc23)c1	inconclusive: -24.9%		
O=C(N/N=C/C1CC=CCC1)c1cc(Br)ccc1O (configuration not stated)		inconclusive: 326 nM [falling, full curve, poor fit]	
Cc1cccc(C(=O)C2CCN(S(=O)(=O)c3cccc(C(=O)O)c3)CC2)c1	inconclusive: -19.2%		
O=C1CC(c2ccccc2Cl)CC(O)=C1C=Nc1ccccc1 (configuration not stated)	inconclusive: 110%		
N#Cc1ccc(OCC(=O)Nc2ccc(N3CCCC3)cc2)cc1	inconclusive: -41.3%		
CC(Sc1nc(N)cc(=O)[nH]1)C(=O)N1CCOCC1 (configuration not stated)	inconclusive: -16.4%		
CCCC(C(=O)Nc1ccc(S(=O)(=O)N2CCOCC2)cc1)c1ccccc1 (configuration not stated)	inconclusive: 12.8%		
CCN1c2ccccc2-c2nc3ccccc3n2C1c1ccco1 (configuration not stated)	inconclusive: 154%		
COc1ccc(C(=O)OCc2cc(=O)n3c(C)csc3n2)cc1F	inconclusive: 15.6%		
CCOC(=O)c1c(S(=O)(=O)NCCc2ccco2)c(C)n(C)c1C	inconclusive: -130%		
Cc1cccc(Oc2ccccc2NC(=O)C2=COCCO2)c1	inconclusive: 19.4%		
COc1ccc(-c2nc(CSCC(=O)N3CCN(c4cccc(C)c4)C(C)C3)c(C)o2)cc1OC (configuration not stated)	inconclusive: -27.9%		
O=C(Nc1c(C(=O)N2CCC(N3CCCCC3)CC2)oc2ccccc12)c1ccc(F)cc1	inconclusive: 49.4%		
O=C(Nc1c2c(nn1-c1ccccc1)CSC2)c1ccc(N2C(=O)CCC2=O)cc1	inconclusive: -0.244%		

SMILES	lipid storage change, negative = inhibition	Potency	outcome
CCOC(=O)c1oc2cc(OCC(N)=O)ccc2c(=O)c1-c1ccc(OC)c(OC)c1	inconclusive: 14.8%		
CC1(C)CC(NC(=O)COc2ccc([N+](=O)[O-])cc2)CC(C)(C)N1	inconclusive: -19.2%		
C#CCOCCOCCOCCNc1nc(N2CCN(C(=O)[C@H](CCC(=O)O)n3cc(C(N)CC(C)C)nn3)CC2)nc(N2CCN(C(=O)[C@H](Cc3ccc(O)cc3)n3cc(C(N)[C@H](C)CC)nn3)CC2)n1 (some centres not stated)	inconclusive: -9.72%		
COc1ccc(C2C(C(=O)Nc3cc(OC)c(OC)c(OC)c3)c3ccccc3C(=O)N2C)cc1 (configuration not stated)	inconclusive: 33.5%		
CCOC(=O)N1CCN(C(=O)Cn2nc(C)n3nc(-c4ccccc4)cc3c2=O)CC1	inconclusive: -2.77%		
O=C(OCN1C(=O)c2ccccc2C1=O)c1cc(S(=O)(=O)N2CCOCC2)ccc1F	inconclusive: 44.1% [at 0.0737 µM]		
CN(CC(=O)NCc1ccncc1)S(=O)(=O)c1ccc(F)cc1	inconclusive: 51.9%		
Cc1cccc(NC(=O)c2ccc(CN3CCN(Cc4ccccc4)CC3)cc2)c1	inconclusive: 11.3%		
O=C(COC(=O)c1ccc(O)cc1)Nc1cc(C(F)(F)F)ccc1Cl	inconclusive: 31.6%		
C/C(=N\NC(=O)C(N)=O)c1ccc2c(c1)OCCO2	inconclusive: -20.2%		
CSc1nnc(-c2ccncc2)n1CCCN1CCCC1=O		active: 731 nM	
Cc1onc(NC(=O)NC(=O)c2c(Cl)cccc2Cl)c1Br	inconclusive: 23.3%		
Cc1ccccc1NC1=NS(=O)(=O)c2ccccc21		inconclusive: 29100 nM [falling, single point]	
CCc1ccc(-c2cc(C(F)(F)F)n3nc(C(=O)Nc4cnn(Cc5ccccc5C)c4)cc3n2)s1		inconclusive: 731 nM [activator, partial curve, poor fit]	
O=C(Nc1ccc(NC(=O)c2ccccc2Cl)cc1)c1cccnc1		inconclusive: 580 nM [activator, single point]	
Cc1cc(C2C(=O)c3ccccc3C2=O)c(C)c(C)c1C	inconclusive: -1.46%		
COc1cc2c(cc1O)[C@@H]1Cc3cc(O)c(OC)cc3[C@H](C2)N1C		inconclusive: 3660 nM [falling, full curve, poor fit]	
Cc1ccc(CNC(=O)c2cc3c(=O)n4cccc(C)c4nc3n(CC3CCCO3)c2=N)cc1 (configuration not stated)	inconclusive: 0.33%		
COc1ccc(Br)cc1/C=N/NC(=O)CNC(=O)c1cccnc1	inconclusive: 10.3%		
CC(=O)Oc1ccc(N(C(C)=O)S(=O)(=O)c2cccs2)c2ccccc12	inconclusive: 79.8%		
CC1CCN(C(=O)COC(=O)c2cccc(NS(=O)(=O)c3ccccc3)c2)CC1	inconclusive: -8.77%		
COc1ccc(C(=O)Nc2ccccc2[N+](=O)[O-])cc1S(=O)(=O)N1CCOCC1	inconclusive: -84.1%		
O=C(O)c1cccc(C(=O)c2cccc(C(=O)O)c2)c1	inconclusive: 2.48%		
O=C(NCC(c1cccs1)N1CCOCC1)c1cc(=O)[nH]c2ccccc12 (configuration not stated)	inconclusive: 12.8%		
Cc1ccsc1/C=N/Nc1ccc(C(=O)O)cc1	inconclusive: 82.4%		

Complete entries, looked up by structure.
`COc1ccc(Br)cc1/C=N/NC(=O)CNC(=O)c1cccnc1` is listed with lipid storage change, negative = inhibition: inconclusive: 10.3%
`COc1ccc(C2C(C(=O)Nc3cc(OC)c(OC)c(OC)c3)c3ccccc3C(=O)N2C)cc1` (configuration not stated) is listed with lipid storage change, negative = inhibition: inconclusive: 33.5%
